PubChem BioAssay AID485318 (Broad Institute, 2010)
Fewer than 10 of roughly 1,400 compounds were called active.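 The calls were made as follows: active = fluorescence-lowering compounds whose fitted half-maximal concentration is at or below ten times the highest valid dose tested; inconclusive = flat curve at 30 to 70% inhibition, or poor fit; inactive = the rest.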 The list shows a part of the results.

Amino acid sequences for entries named in this document (tags omitted). A change or cut given only in a name is not applied to a line headed by its entry.
UniProt O15379: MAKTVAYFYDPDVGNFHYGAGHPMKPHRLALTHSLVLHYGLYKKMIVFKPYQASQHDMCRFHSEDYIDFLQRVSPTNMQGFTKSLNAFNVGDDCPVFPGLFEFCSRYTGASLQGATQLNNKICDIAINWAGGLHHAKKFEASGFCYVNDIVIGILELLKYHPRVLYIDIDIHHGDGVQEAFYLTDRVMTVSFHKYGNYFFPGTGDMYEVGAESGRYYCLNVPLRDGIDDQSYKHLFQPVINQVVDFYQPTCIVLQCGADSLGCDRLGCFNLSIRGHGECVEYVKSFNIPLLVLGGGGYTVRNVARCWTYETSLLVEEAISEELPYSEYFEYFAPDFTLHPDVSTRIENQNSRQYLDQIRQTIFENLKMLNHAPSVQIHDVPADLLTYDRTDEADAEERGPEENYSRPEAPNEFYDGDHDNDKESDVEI

target: Histone deacetylase 3 (Homo sapiens) (UniProt O15379); assay: inhibition of human HDAC3 enzymatic activity – biochemical, fluorescence, cherry-picked samples, counter-screen for JMJD2C/GASC1 demethylase inhibitor project, dose response (AID 485318); conditions: recombinant HDAC3, fluorogenic peptide/trypsin coupled; at 12 µM (top of the series);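 also: enzyme preincubated with compound before substrate and trypsin were added; 0% = neutral control wells and -100% = SAHA positive control wells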

| SMILES | activity change, negative = inhibition |
| --- | --- |
| Cn1c(SCC(=O)Nc2cc(S(=O)(=O)N3CCOCC3)ccc2N2CCOCC2)nnc1-c1ccncc1 | inactive: 0.574% |
| O=C(N/N=C/c1cc([N+](=O)[O-])cc([N+](=O)[O-])c1O)C(O)(c1ccccc1)c1ccccc1 | inactive: 0.322% |
| COC(=O)[C@]1(C)N[C@H](CN(C)C(=O)Nc2ccc(C)cc2)[C@@H]2C(=O)N(Cc3ccccc3)C(=O)[C@@H]21 | inactive: 0.516% |
| Cc1ccc(NC(=O)c2ccc(OC(=O)CCN3C(=O)c4ccccc4C3=O)cc2)cc1 | inactive: 0.646% |
| CCCCN(CC)S(=O)(=O)c1ccc(C(=O)Nc2nnc(COC)o2)cc1 | inactive: 0.523% |
| Cc1cc(N(C)C)cc(C)[n+]1[O-] | inactive: 1.03% |
| Cn1c(CNC(=O)c2ccccc2F)nnc1SCC(=O)Nc1nnc(C2CC2)s1 | inactive: 0.0357% |
| CC(=O)Nc1n[nH]c(-c2ccc(C)cc2)c1C | inactive: 0.164% |
| C[C@@H]1CN([C@H](C)CO)C(=O)c2cccc(NC(=O)c3ccncc3)c2O[C@@H]1CN(C)Cc1ccc(C(=O)O)cc1 | inactive: -0.337% |
| CC(=O)N1CCN(c2ccc(NC(=O)c3ccc4ccccc4c3)cc2)CC1 | inactive: 0.314% |
| CCS(=O)(=O)N1CCCC(C(=O)NCCCN2CCCC2=O)C1 (stereo unspecified) | inactive: -0.0791% |
| CCOC(=O)N1CCc2c(sc3nc4n(c(=O)c23)N=C(C)CS4)C1 | inactive: -0.111% |
| C#CCOCCOCCOCCNc1nc(N2CCN(C(=O)[C@H](CCCCN)n3cc([C@@H](N)[C@H](C)CC)nn3)CC2)nc(N2CCN(C(=O)[C@H](CCC(=O)O)n3cc([C@@H](N)CCSC)nn3)CC2)n1 | inactive: -0.115% |
| CC(=O)C1=C(c2ccccc2)N(C(C)=O)n2c(C)nnc2S1 | inactive: -0.262% |
| C[C@@]12C(=O)Nc3ccc(Br)cc3C(=O)N1[C@H]1c3ccccc3OC[C@@H]1[C@@H]2c1ccccc1 | inactive: 0.113% |
| Cc1occc1-c1nnc(SCC(=O)Nc2ccccc2)n1C(C)c1ccccc1 (stereo unspecified) | inactive: 0.434% |
| CC(C)(C)c1ccc(C(=O)NNC(=O)c2cccc(Br)c2)cc1 | inactive: -0.391% |
| COCCn1nnnc1C(C(C)C)N1CCCC(C)C1 (stereo unspecified) | inactive: 0.953% |
| COC(=O)NNC(=S)Nc1cc(OC)ccc1OC | inactive: 1.27% |
| O=c1ccc2c(-c3ccccc3S(=O)(=O)O)c3ccc(O)c(O)c3oc-2c1O | inactive: 0.202% |
| Cc1cc(C)n2nc(C(=O)N3CCCC(Nc4ccc(F)c(F)c4)C3)cc2n1 (stereo unspecified) | inactive: 0.457% |
| CN(C)CCCN1C(=O)C(=O)/C(=C(/O)c2ccncc2)C1c1ccccc1 (stereo unspecified) | inactive: -0.0699% |

| SMILES | activity change, negative = inhibition |
| --- | --- |
| C=CCn1c(N2CCCCCC2)nc2c1c(=O)[nH]c(=O)n2C | inactive: -0.748% |
| O=[N+]([O-])c1cc(/C=N/Nc2nc3ccccc3[nH]2)c(O)cc1O | inactive: 0.0861% |
| NC(=O)C1CCN(c2nc(-c3ccccc3Br)cs2)CC1 | inactive: -0.0286% |
| CC(C)NC(=O)Nc1ccc2c(c1)C(=O)N([C@H](C)CO)C[C@@H](C)[C@@H](CN(C)C(=O)NC1CCCCC1)O2 | inactive: 0.967% |
| CCOC(=O)Nc1cc(C)c(Cl)cc1OC | inactive: 1.18% |
| CCN(C[C@H]1N[C@@](CC)(C(=O)OC)[C@H]2C(=O)N(Cc3ccccc3)C(=O)[C@@H]12)S(=O)(=O)c1ccc(C(C)(C)C)cc1 | inactive: 0.413% |
| COc1ccc(/C=N/N(C)c2cc(=O)n(C)c(=O)[nH]2)cc1OC | inactive: 0.29% |
| CC1CN(Cc2c(O)ccc3c2oc(=O)c2ccccc23)CC(C)O1 (stereo unspecified) | inactive: -0.481% |
| Cc1nn(-c2cccc(C(=O)O)c2)c(C)c1Oc1ccccc1O | inactive: -0.0812% |
| COC(=O)c1cccc(C#CC(NP(=O)(c2ccccc2)c2ccccc2)c2ccccc2)c1 (stereo unspecified) | inactive: -0.21% |
| O=C(N/N=C/c1ccc(O)cc1)c1cncc(Br)c1 | inactive: -0.0737% |
| CCCCOC(=O)Cn1cnc2ccc(Br)cc2c1=O | inactive: -0.0235% |
| CN1CCN(CC(=O)Nc2ccc(S(=O)(=O)N(C)C)cc2)CC1 | inactive: -0.125% |
| O=C(Cc1ccccc1)NC1(O)C(=O)c2ccccc2C1=O | inactive: 0.188% |
| Nc1ccc2oc(-c3ccccn3)nc2c1 | inactive: 0.396% |
| O=C(NNC(=O)c1cccs1)c1ccc([N+](=O)[O-])cc1 | inactive: -1.01% |
| Cc1nc2sc(C(c3cccc(F)c3)N3CCOCC3)c(O)n2n1 (stereo unspecified) | inactive: 1.25% |
| CN(C)c1ccc(NC(=S)c2ccccn2)cc1 | inactive: 0.555% |
| COC(=O)c1sc(NC(=O)c2cc3c(s2)CCCC3)nc1C | inactive: -0.358% |
| CCNc1ccc(S(=O)(=O)N(C)C)cc1NCC(=O)Nc1c(F)cccc1F | inactive: 0.472% |
| CCSc1nnc(-c2cccc(S(=O)(=O)N(CC)CC)c2)n1Cc1ccccc1 | inactive: 0.208% |
| Cc1ccc(S(=O)(=O)NCCC(=O)N2CCN(c3cccc(Cl)c3)CC2)cc1C | inactive: -0.362% |

| SMILES | activity change, negative = inhibition |
| --- | --- |
| COc1ccc(C(=O)O/N=C(\C)c2cnccn2)cc1 | inactive: 1.48% |
| CCOC(=O)C(C)Oc1ccsc1C(=O)OC (stereo unspecified) | inactive: 0.474% |
| CC(=O)c1cccc(NC(=S)NC(=O)CC(C)C)c1 | inactive: -0.0803% |
| CCc1ccc(C(=O)CSc2nc3ccccc3c(=O)[nH]2)cc1 | inactive: 0.0353% |
| O=c1cc(N2CCc3ccccc32)[nH]c(=O)n1Cc1ccc(F)cc1 | inactive: 0.509% |
| CCOC(=O)c1c(NC(=O)c2cc(-c3ccc(O)cc3)on2)sc(C(C)=O)c1C | inactive: 0.792% |
| Oc1ccc(-c2nc3ncccn3c2Nc2ccc3c(c2)OCO3)cc1 | inactive: 0.115% |
| COC(=O)CN1C(=O)[C@H]2[C@@H](/C=C/c3ccccc3)N3C(=O)CN(Cc4ccccn4)C(=O)[C@@]3(Cc3ccccc3)[C@H]2C1=O | inactive: 0.0934% |
| COc1ccc(N/C=C2/CCCCC2=O)cc1 | inactive: -0.432% |
| Cn1c(=O)c(-c2ccccc2)nn2c3ccccc3nc12 | inactive: -0.459% |
| O=C(Cn1nc(-c2ccc(Cl)cc2)ccc1=O)NCC1COCCO1 (stereo unspecified) | inactive: -0.234% |
| Cn1c(=N)n(CC(O)c2ccccc2)c2ccccc21 (stereo unspecified) | inactive: 0.562% |
| CN(C)c1ccc(N=Cc2nc(-c3ccccc3)oc2OC(=O)c2ccccc2)cc1 | inactive: -0.11% |
| O=C1NCCC/C1=N/Nc1ccc(F)cc1 | inactive: 0.198% |
| Cc1ccc(-c2csc3nc4cc(C(=O)NC5CCC(O)CC5)ccc4c(=O)n23)cc1 (stereo unspecified) | inactive: -0.117% |
| COc1ccc(CCNC(=O)CSCc2n[nH]c(=O)[nH]2)cc1OC | inactive: 0.182% |
| Cc1ccc(Nc2nnc(SCC(=O)N(C)C3CCS(=O)(=O)C3)s2)cc1 (stereo unspecified) | inactive: 0.304% |
| CC(C)C[C@@H]1CN=C(N)N1C[C@@H]1CCCN1C[C@H](C)N1C[C@@H](Cc2ccccc2)N(CCc2ccc(Cl)c(Cl)c2)C1=N | inactive: 0.112% |
| COc1ccc(NC(=O)N(C)C[C@H]2Oc3c(NC(=O)C4CC4)cccc3C(=O)N([C@H](C)CO)C[C@@H]2C)cc1 | inactive: 0.036% |
| Cc1noc(C)c1S(=O)(=O)N(C)C[C@H]1Oc2c(NC(=O)Nc3ccccc3)cccc2C(=O)N([C@H](C)CO)C[C@@H]1C | inactive: 0.586% |
| CC1CCN(C(=S)NC(=O)c2cccc([N+](=O)[O-])c2)CC1 | inactive: 0.254% |
| Cc1ccc(C(c2sc3nc(C)nn3c2O)N2CCN(c3ccccc3F)CC2)cc1 (stereo unspecified) | inactive: 0.0931% |

| SMILES | activity change, negative = inhibition |
| --- | --- |
| N/C(=N\S(=O)(=O)c1cc(C(F)(F)F)cc(C(F)(F)F)c1)c1ccccc1 | inactive: 0.0583% |
| O=C(CSc1nnc(CNC(=O)c2c(F)cccc2Cl)o1)Nc1ccc2c(c1)OCCO2 | inactive: 0.361% |
| CCn1c(CNC(=O)Cc2ccc(OC)cc2)nnc1SCC(=O)NC1CCCCC1 | inactive: -0.567% |
| O=C1c2ccccc2C(=O)C12OC2c1cccc2ccccc12 (stereo unspecified) | inactive: -0.185% |
| CCN(CC)C(=O)C1c2ccccc2Oc2ccccc21 | inactive: -0.357% |
| Cc1ccc(Cl)cc1N1CCN(C(=O)c2ccc(NS(=O)(=O)c3c(C)noc3C)cc2)CC1 | inactive: 0.244% |
| Cc1cc2ccccn2c1C(=O)c1ccncc1 | inactive: 0.618% |
| CC(C)(C)c1ccc(C(=O)OCc2c(-c3ccccc3)ncc3ccccc23)cc1 | inactive: 0.791% |
| O=c1ccc2cc3c([nH]c4ccc(Br)cc43)oc-2c1O | inactive: 0.247% |
| CCOc1ccc(C(=S)NC2CCCCC2)cc1 | inactive: 0.673% |
| O=C(NNC(=O)C1CCN(S(=O)(=O)c2ccccc2)CC1)c1ccccc1O | inactive: 0.489% |
| Cc1cccc(NC(=S)N2CCN(Cc3ccc4c(c3)OCO4)CC2)c1C | inactive: 0.411% |
| COc1ccc(/C(O)=C/Sc2nnc(Cc3ccccc3)o2)cc1 | inactive: 0.165% |
| COc1ccc(CCNC(=O)c2ccccc2Cl)cc1OC | inactive: 0.428% |
| O=C(C1CCC1)N(CCc1ccccc1)Cc1nc2ccccc2c(=O)[nH]1 | inactive: 0.195% |
| O=C(NCc1cccc(Cl)c1)c1ccc2c(c1)OCO2 | inactive: -0.78% |
| Cc1ccc(C2=[N+]([O-])C(C)(C)CC2)cc1 | inactive: 0.77% |
| NC(=O)C1CCN(C(=O)CCSc2ccccc2)CC1 | inactive: 0.0558% |
| COc1ccc(NC(=S)NNC(=O)c2ccc(S(=O)(=O)N3CCOCC3)cc2)cc1 | inactive: 0.24% |
| O=S(=O)(Nc1ccccc1F)c1cccc(NC(=S)NCCN2CCOCC2)c1 | inactive: 0.812% |

In the list so far, three contain a tert-butyl group:

| SMILES | activity change, negative = inhibition |
| --- | --- |
| CC(C)(C)c1ccc(C(=O)NNC(=O)c2cccc(Br)c2)cc1 | inactive: -0.391% |
| CCN(C[C@H]1N[C@@](CC)(C(=O)OC)[C@H]2C(=O)N(Cc3ccccc3)C(=O)[C@@H]12)S(=O)(=O)c1ccc(C(C)(C)C)cc1 | inactive: 0.413% |
| CC(C)(C)c1ccc(C(=O)OCc2c(-c3ccccc3)ncc3ccccc23)cc1 | inactive: 0.791% |
